The source of these data is the odorant receptor screen of Mainland et al. (2015).

Among the test systems are OR5AN1 clone 1245; OR5AP2 clone 1209; OR5AR1 clone 1207; OR5AS1 clone 1135; OR5AU1 clone 1344; OR5B17 clone 1220; OR5B2 M200T clone 1246; OR5B21 I279F clone 1482; OR5B3 clone 1138; OR5C1 clone 1425; OR5D14 clone 1230; OR5D18 N136D clone 1203; OR5F1 S294N clone 1148; OR5H1 clone 1471; OR5H2 clone 1055; OR5H6 clone 1056.
Experiment in all cases: odorant receptor activation (CRE luciferase / Renilla) (fold of no-odor wells); higher = more activation
What all share (conditions): 100 µM

The subject of assay [1] is OR5AU1 L66F/I248V clone 1421.
The subject of assay [2] is OR5H1 I153L/T181I clone 1473.
In assay [3] the test system is OR5H14 G64R/Y189C clone 1472.
Assay [4] relates to OR5H2 E11Q/I225V/I281V clone 1466.

Molecules are shown by their SMILES. “And” between values parts separate entries of the source, which are not always exact repeats. Equal entries are not always repeated. This is one part of the list. Single wells; the ratio to wells without odorant was worked out here, and repeats agree poorly.

Regarding `c1cnccn1` [pyrazine], the odorant receptor activation was determined as 0.668 with OR5AN1 clone 1245; 0.878 with OR5AP2 clone 1209; 0.872 in the assay on OR5AR1 clone 1207; 1.02 in the assay with OR5AS1 clone 1135; 1.29 in assay [1]; 0.838 with OR5AU1 clone 1344. In addition, the odorant receptor activation with OR5B17 clone 1220 turned out to be 0.872; in the assay with OR5B2 M200T clone 1246 it was 0.587; in the assay on OR5B21 I279F clone 1482 it was 1.01; with OR5B3 clone 1138, 1.09; with OR5C1 clone 1425, 1.18; with OR5D14 clone 1230, 0.948. Moreover, the odorant receptor activation with OR5D18 N136D clone 1203 stood at 0.949; in the assay with OR5F1 S294N clone 1148, 1.11; in [2], 0.834; in the assay on OR5H1 clone 1471, 1.09; in assay [3] it was 0.753; in [4], 0.85. In addition, the odorant receptor activation in the assay with OR5H2 clone 1055 was found to be 1.05; in the assay on OR5H6 clone 1056 it was 0.836.
In the case of `CCCCCCC=O` [heptaldehyde], the odorant receptor activation is 0.46 and 1.03 in the assay with OR5AR1 clone 1207; 0.765 and 0.839 in [1]; 0.533 and 1.13 and 1.11 in the assay on OR5AU1 clone 1344; 0.247 and 0.627 with OR5B17 clone 1220; 0.521 and 0.741 and 0.91 in the assay with OR5B2 M200T clone 1246; 0.443 and 0.959 with OR5B3 clone 1138. In addition, the odorant receptor activation is 0.845 and 1.04 in the assay on OR5C1 clone 1425; 1.28 in the assay on OR5D14 clone 1230; 0.354 and 1.05 in the assay on OR5F1 S294N clone 1148; 1.28 and 1.03 in the assay with OR5H2 clone 1055; 1.69 and 1.34 in the assay on OR5H6 clone 1056.
Regarding `CC1=NC(C)SC1C` (centres undefined), the odorant receptor activation was determined as 0.733 in the assay with OR5AN1 clone 1245; 0.896 with OR5AP2 clone 1209; 0.944 in the assay on OR5AR1 clone 1207; 1.07 with OR5AS1 clone 1135; 0.867 in assay [1]; 0.663 in the assay with OR5AU1 clone 1344. The odorant receptor activation with OR5B17 clone 1220 was 1.04; in the assay on OR5B2 M200T clone 1246, 2.41; in the assay with OR5B21 I279F clone 1482, 1.2 and 0.997; with OR5B3 clone 1138, 1.25; with OR5C1 clone 1425, 1.1; in the assay with OR5D18 N136D clone 1203, 0.716. Besides, the odorant receptor activation is 0.655 in the assay on OR5F1 S294N clone 1148; 1.26 and 1.21 in assay [2]; 0.725 and 0.942 with OR5H1 clone 1471; 1.37 and 0.726 in assay [3]; 0.839 and 1.04 in assay [4]; 1.14 in the assay with OR5H2 clone 1055. Moreover, the odorant receptor activation in the assay with OR5H6 clone 1056 came out at 1.03.
For the compound `O=C1CCCCC1` [Cyclohexanone], the odorant receptor activation was found to be 0.22 with OR5AN1 clone 1245; 0.817 with OR5AP2 clone 1209; 0.861 in the assay on OR5AR1 clone 1207; 1.63 with OR5AS1 clone 1135; 0.783 in assay [1]; 0.641 with OR5AU1 clone 1344. Moreover, the odorant receptor activation in the assay with OR5B17 clone 1220 is 0.911; with OR5B2 M200T clone 1246, 0.419; with OR5B21 I279F clone 1482 it was 0.623 and 0.89; in the assay on OR5B3 clone 1138, 0.766; with OR5C1 clone 1425, 0.873; with OR5D18 N136D clone 1203, 0.791. The odorant receptor activation in the assay on OR5F1 S294N clone 1148 is 0.65; in assay [2], 0.562 and 1.03; in the assay on OR5H1 clone 1471 it was 0.571 and 0.902; in assay [3] it was 0.828 and 0.684; in [4], 0.438 and 1.01; in the assay with OR5H2 clone 1055, 0.766. In the assay with OR5H6 clone 1056, this compound returned an odorant receptor activation of 0.875.
On to `CCC1(O)C2(C)CCC(C2)C1(C)C` (centres undefined) [2-ethylfenchol], for which the odorant receptor activation is 1.07 with OR5AN1 clone 1245; 0.648 in the assay on OR5AP2 clone 1209; 1.18 in the assay on OR5AR1 clone 1207; 1.31 in the assay with OR5AS1 clone 1135; 1.1 in assay [1]; 0.841 with OR5AU1 clone 1344. Also, the odorant receptor activation with OR5B17 clone 1220 amounted to 1.14; with OR5B2 M200T clone 1246 it was 1.4; with OR5B21 I279F clone 1482, 0.959; in the assay on OR5B3 clone 1138, 0.986; in the assay with OR5C1 clone 1425, 0.865; with OR5D14 clone 1230, 1.17. The odorant receptor activation was determined as 1.05 with OR5D18 N136D clone 1203; 1.58 with OR5F1 S294N clone 1148; 1.15 in assay [2]; 1.33 in the assay on OR5H1 clone 1471; 1.43 in [3]; 1.17 in assay [4]. Also, the figures for the odorant receptor activation in the assay with OR5H2 clone 1055 and with OR5H6 clone 1056 were 2.79 and 3.13, respectively.
Regarding `CC(C)=CCCC(C)=CC=O` [citral], the odorant receptor activation in the assay on OR5AN1 clone 1245 stood at 1.1; in the assay with OR5AP2 clone 1209 it was 0.95; with OR5AR1 clone 1207, 1.11; with OR5AS1 clone 1135, 1.02; in assay [1] it was 0.446; with OR5AU1 clone 1344, 0.897. For the same compound, the odorant receptor activation turned out to be 1.09 with OR5B17 clone 1220; 1.42 in the assay with OR5B2 M200T clone 1246; 1.09 with OR5B21 I279F clone 1482; 1.15 in the assay with OR5B3 clone 1138; 0.391 with OR5C1 clone 1425; 1.13 in the assay on OR5D14 clone 1230. Also, the odorant receptor activation with OR5D18 N136D clone 1203 was 1.09; in the assay with OR5F1 S294N clone 1148, 1.18; in [2], 0.822; in the assay with OR5H1 clone 1471, 1.18; in assay [3] it was 1.07; in assay [4], 1.08. The odorant receptor activation in the assay with OR5H2 clone 1055 was determined as 1.37; with OR5H6 clone 1056, 1.27.
As to `CC12C=CCC1C1CCC3CC(=O)CCC3(C)C1CC2` (centres undefined) [androstenone], the odorant receptor activation is 1.22 with OR5AN1 clone 1245; 3.07 with OR5AP2 clone 1209; 4.78 in the assay on OR5AR1 clone 1207; 9.21 in the assay on OR5AS1 clone 1135; 1.33 in assay [1]; 1.14 in the assay with OR5AU1 clone 1344. Also, the odorant receptor activation was determined as 9.81 in the assay on OR5B17 clone 1220; 1.15 in the assay on OR5B2 M200T clone 1246; 1.02 in the assay on OR5B21 I279F clone 1482; 7.27 in the assay with OR5B3 clone 1138; 0.967 in the assay with OR5C1 clone 1425; 6.2 in the assay on OR5D14 clone 1230. Also, the odorant receptor activation with OR5D18 N136D clone 1203 turned out to be 4.57; in the assay with OR5F1 S294N clone 1148, 7.14; in assay [2], 0.865; in the assay with OR5H1 clone 1471 it was 1.01; in [3] it was 1.16; in [4] it was 1.1. Also, the values for the odorant receptor activation in the assay with OR5H2 clone 1055 and with OR5H6 clone 1056 were 1.55 and 2.07, respectively.
Take `c1ccc(Oc2ccccc2)cc1` [diphenyl ether]: the odorant receptor activation in the assay on OR5AN1 clone 1245 was determined as 0.944; in the assay with OR5AP2 clone 1209 it was 1.05; in the assay with OR5AR1 clone 1207, 1.1; in the assay on OR5AS1 clone 1135, 1.1; in assay [1] it was 1.07; with OR5AU1 clone 1344, 1.02. Also, the odorant receptor activation in the assay with OR5B17 clone 1220 was 0.889; in the assay with OR5B2 M200T clone 1246 it was 0.949; with OR5B21 I279F clone 1482, 1.18; in the assay with OR5B3 clone 1138, 0.949; in the assay with OR5C1 clone 1425 it was 0.748; in the assay on OR5D14 clone 1230, 1.06. Further, the odorant receptor activation came to 0.919 with OR5D18 N136D clone 1203; 1.18 in the assay with OR5F1 S294N clone 1148; 0.91 in [2]; 1.36 with OR5H1 clone 1471; 1.18 in [3]; 1.16 in assay [4]. Besides, the odorant receptor activation in the assay on OR5H2 clone 1055 stood at 1.03; in the assay with OR5H6 clone 1056 it was 0.996.
